According to publication PMC5626749:
These are yes or no findings as the source states them, for the method shown. Binding seen in cells or lysates may run through a third protein. Some results given as binding are weak or reduced against the parent protein; the word gives no strength.

Chains of the proteins cited; added tags and fusions are not shown.
UniProt O88522: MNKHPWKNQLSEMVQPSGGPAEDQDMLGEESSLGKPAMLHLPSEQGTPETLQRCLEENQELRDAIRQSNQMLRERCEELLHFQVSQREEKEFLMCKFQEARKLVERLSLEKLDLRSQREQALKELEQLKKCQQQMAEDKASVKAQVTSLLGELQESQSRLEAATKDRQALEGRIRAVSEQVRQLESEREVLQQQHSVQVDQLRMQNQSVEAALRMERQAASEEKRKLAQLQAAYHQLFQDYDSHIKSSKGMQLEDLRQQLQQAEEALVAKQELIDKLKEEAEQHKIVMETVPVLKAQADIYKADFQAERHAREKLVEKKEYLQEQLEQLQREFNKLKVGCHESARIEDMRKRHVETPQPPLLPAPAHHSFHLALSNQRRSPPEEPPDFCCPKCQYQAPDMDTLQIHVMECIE

Legend:
[1] = target: T1, Tumor Necrosis Factor Receptor Associated Factor 6 (TRAF6) (UniProt P70196); assay: co-IP; Plat-E cells co-transfected with pMX-NUMBL and pMX-TRAF6 or pMX-NEMO; lysis in 10 mM Tris-HCl pH 8.0, 1 mM EDTA, 125 mM NaCl, 1% NP-40; IP with anti-TRAF6 or anti-NEMO antibody and Protein-G beads overnight at 4 °C; washes with 20 mM NaCl buffer; immunoblot for NUMBL
T1 sequence: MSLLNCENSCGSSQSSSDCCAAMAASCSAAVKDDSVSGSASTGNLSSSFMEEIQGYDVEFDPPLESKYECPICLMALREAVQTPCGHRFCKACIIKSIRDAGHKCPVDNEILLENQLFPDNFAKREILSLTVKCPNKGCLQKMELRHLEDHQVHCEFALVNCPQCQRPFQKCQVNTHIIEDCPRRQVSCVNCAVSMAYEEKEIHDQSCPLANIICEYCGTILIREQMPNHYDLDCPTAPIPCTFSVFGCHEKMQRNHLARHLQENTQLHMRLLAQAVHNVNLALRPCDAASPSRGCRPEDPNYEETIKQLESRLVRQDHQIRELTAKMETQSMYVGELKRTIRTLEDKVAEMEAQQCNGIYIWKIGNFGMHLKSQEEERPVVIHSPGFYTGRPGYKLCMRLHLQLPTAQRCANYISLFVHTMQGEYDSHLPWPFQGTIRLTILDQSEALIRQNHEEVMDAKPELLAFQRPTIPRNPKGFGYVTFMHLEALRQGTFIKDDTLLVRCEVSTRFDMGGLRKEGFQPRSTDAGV

IKKγ/NEMO = IKKγ/NEMO (UniProt O88522); assay: as above

binding (IKKγ/NEMO): binds
B1: NUMB-like (NUMBL) protein (protein, UniProt O08919 1-604)
chain: MSRSAAASGGPRRPDQHLSPAPCGASGPPETFRTESDGAGTMNKLRQSLRRRKPAYVPEASRPHQWQADEDAVRKGTCSFPVRYLGHVEVEESRGMHVCEDAVKKLKAMGRKSVKSVLWVSADGLRVVDDKTKDLLVDQTIEKVSFCAPDRNLDKAFSYICRDGTTRRWICHCFLALKDSGERLSHAVGCAFAACLERKQRREKECGVTAAFDASRTSFAREGSFRLSGGGRPAEREAGDKKKAEAAAAPAVAPGPAQPGHVSPTPATTSPGEKGEAGTPVAAGTTAAAIPRRHAPLEQLVRQGSFRGFPALSQKNSPFKRQLSLRLNELPSTLQRRTDFQVKGTVPEMEPPGTGDSDGINALCTQISSSFASAGAPASGPPPATTGTSAWGEPSVPAAAAFQPGHKRTPSEAERWLEEVSQVAKAQQQQQQQQQQQQQQQATSVPPMPTMAPTLQPFSAPVGPFDTAAAQVAVFLPPTHMQPPFVPAYPGLGYPPMPRVPVVGITPSQMVANAFCSAAQLQPQPATLLGKAGAFPPPAAPSAPGGQARPRPNGAPWPPEPAPAPAPELDPFEAQWAALEGKPAVEKPSNPFSGDLQKTFEIEL
binding [1]: binds
